# Experimental data taken from publication PMC12040169 (PLOS Biology, 2025).
# The list shows a part of the results.
# Tested on: T1, CTL2-GFP (C. trachomatis L2/434/Bu, GFP-expressing)
# T1 construct: L2/434/Bu, GFP-expressing
# Parameters: species or system HeLa; Intracellular C. trachomatis growth in HeLa cells, bulk GFP fluorescence relative to DMSO
# Settings: bulk GFP, single well; 28.5 h, 10 µM; inhibitor
row,Compound,% of control remaining
1,COc1ccccc1-c1ccc2c(c1)COC1(CCN(C)CC1)O2 [CBK061024],128.457%
2,COc1ccc(C)cc1-n1ccc(C(=O)NC2CCSCC2)n1 [CBK305502],107.343%
3,O=C(c1cn2ccccc2n1)N1CCCN(Cc2cscn2)CC1 [CBK305352],109.616%
4,COc1cc2c(cc1OC)C1(CCN(C(=O)Nc3ccc(F)cc3F)CC1)NC(=O)C2 [CBK047264],100%
5,CCCc1ccc(C(=O)N2CCC(C(=O)c3cccnc3)CC2)o1 [CBK285482],98.9743%
6,COc1ccc(OC(C)C(=O)Nc2cc(OC)c(Cl)cc2OC)cc1 (stereo not drawn) [CBK263627],114.957%
7,O=C(CSc1nnc(Cc2cccc3ccccc23)n1-c1ccccc1)N1CCc2ccccc21 [CBK266697],138.805%
8,CC1(C)CC(CN)(c2ccccc2)CCO1 (stereo not drawn) [CBK025559C],138.486%
9,CC(=O)Nc1ccc(-c2cccc(COC3CCN(C(=O)Cc4cc(F)cc(F)c4F)CC3)c2)cc1 [CBK149489],100.546%
10,CCN(CC)C(=O)c1ccc(NS(=O)(=O)c2cccc(Cl)c2C)cc1 [CBK034393],93.9454%
11,Cc1c(C#N)c(=O)ncn1Cc1ccncc1 [CBK021603],110.792%
12,COc1ccc(Cl)cc1N1CCN(CCN2CCCCC2)CC1 [CBK126445],108.44%
13,CCn1c(CN[C@@H]2CCC[C@H]2Cc2cc(C)no2)cnc1SC [CBK282965],138.976%
14,OC1(c2cccnc2F)CCN(Cc2cc(F)ccc2F)CC1 [CBK284371],127.14%
15,O=C(CC(CN1CCN(Cc2ccccn2)CC1)C(=O)O)NCc1ccccc1 (stereo not drawn) [CBK286865],137.3%
16,Cc1cc2c(s1)c1cnn(CCN3CCCC3)c(=O)c1n2C [CBK284180],140.703%
17,COc1ccc(C(C)=O)cc1Cc1c(O)nc(SC)nc1O [CBK262699],127.311%
18,O=C(O)CCC(=O)N1CCN(c2ncccn2)CC1 [CBK057422],114.343%
19,CCc1nc2c(OCc3ccccc3)cccn2c1N(C)C(=O)c1ccncc1 [CBK147876],100.617%
20,COc1ccc(CCNC(=O)N(C)C2CCN(C)C2)cc1OC (stereo not drawn) [CBK156007],113.107%
21,O=C(NCCNc1ccc(Cl)cc1[N+](=O)[O-])c1c(F)cccc1F [CBK269643],104.015%
22,CC(C)(CN)CN(Cc1ccccc1Br)C(=O)NC(c1ccccc1)c1ccccc1 [CBK002488C],48.9418%
23,O=C(NC(c1ccccc1)c1ccccn1)C1CCN(C(=O)Oc2ccccc2)CC1 (stereo not drawn) [CBK060105],111.209%
24,CSc1ncc(Cl)c(C(=O)Nc2sc3c(c2C(=O)NCc2ccco2)CCC3)n1 [CBK268991],154.669%
25,Cc1n[nH]c(C)c1CNC(=O)c1[nH]c2c(Cl)cccc2c1C [CBK282534],108.172%
26,CN(c1cncc(Cl)n1)C1CCN(Cc2ccccc2)CC1 [CBK012767F],149.754%

row,Compound,% of control remaining
1,O=C1Nc2c(cnn2-c2ccc(Cl)cc2)C2=NCCN12 [CBK284341],69.8867%
2,CCn1c(C)nc2cc(S(N)(=O)=O)ccc21 [CBK260950],108.903%
3,CCNc1nc(=S)[nH]c2sc3c(c12)CCC(C)C3 (stereo not drawn) [CBK086242],169.163%
4,Cc1ccc([N+](=O)[O-])cc1NC(=O)C1CCCN1S(=O)(=O)c1ccc(Cl)cc1 (stereo not drawn) [CBK033769],112.937%
5,CCOc1ccc(-c2ccnc(N3C[C@@H](C)O[C@@H](C)C3)n2)cc1C(=O)O [CBK306584],152.221%
6,CCOc1ccc(OC(=O)C2CCN(C(=O)CC(C)C)CC2)cc1 [CBK154228],93.0002%
7,CCCN1CCN(c2ncnc3scc(C4COc5ccccc5O4)c23)CC1 (stereo not drawn) [CBK266590],146.694%
8,CCN(CC(=O)NCc1cccnc1)S(=O)(=O)c1ccc2ccccc2c1 [CBK300514],105.132%
9,C=CCNc1nc(N)c(/C(N)=N/C#N)s1 [CBK019028],89.3885%
10,CCn1cc(CN(CCO)C(=O)c2cccc(C#N)c2C)cn1 [CBK304196],97.2343%
11,Cc1cc(NS(=O)(=O)c2ccc(NC(=O)c3cc(-c4ccc(C)o4)nc4ccccc34)cc2)nc(C)n1 [CBK262628],117.641%
12,O=C1O[C@@H](CCl)CN1c1ccc(N2CCOCC2)c(F)c1 [CBK017613],59.9241%
13,O=[N+]([O-])c1cc(S(=O)(=O)Nc2cccc(-c3cnco3)c2)ccc1Cl [CBK067125],52.9834%
14,COc1ccc(S(=O)(=O)Nc2ccncc2)cc1N(C)S(=O)(=O)c1ccccc1 [CBK267179],133.417%
15,c1ccc(CSc2ccc(-c3ccncc3)nn2)nc1 [CBK287638],158.308%
16,CN(C)CCOc1ccc2c(c1)OC1(CCN(C(=O)c3ccc4sc(N)nc4c3)CC1)CC2=O [CBK169380],119.327%
17,CC(C)C(=O)NC(c1ccc(C(C)C)cc1)c1cc([N+](=O)[O-])c2cccnc2c1O (stereo not drawn) [CBK265303],119.503%
18,CCN(CC)C(=O)CN1CCN(c2nccnc2OCC2COc3ccccc3O2)CC1 (stereo not drawn) [CBK082803T],56.0152%
19,Cc1cccc(CN(CC(=O)Nc2ccc(F)cc2F)S(=O)(=O)c2ccc(Cl)cc2)c1 [CBK265164],124.924%
20,O=C(CSc1ncccc1C(=O)O)Nc1ccc(Oc2ccccc2)cc1 [CBK266340],115.833%
21,CN1CCN(CC(O)COc2ccccc2)CC1 (stereo not drawn) [CBK278191G],125.912%
22,CC(C)CC(NC(=O)Cc1cccc(O)c1)c1nnc2n1CCNCC2 (stereo not drawn) [CBK307183],135.16%
23,COc1ccc(C)cc1-n1ccc(C(=O)NC(C)(C)C)n1 [CBK306315],157.118%
24,Cc1cc(C)n(CCC(=O)N2C[C@@H]3CCCCN(CC4CC4)[C@@H]3C2)n1 [CBK285505],115.072%
25,CN(C(=O)CCn1c(=O)oc2cc(Cl)ccc21)C1CCNC1 (stereo not drawn) [CBK304310C],126.225%
26,COc1ccc2c(c1)C(C[C@H]1CN(C(=O)C3CC3)CC[C@H]1CC(=O)O)=NCC2 [CBK289157],133.031%

# Single entries from the entries so far.
# % of control remaining, C=CCNc1nc(N)c(/C(N)=N/C#N)s1 [CBK019028] reads 89.3885%
# % of control remaining, O=C1Nc2c(cnn2-c2ccc(Cl)cc2)C2=NCCN12 [CBK284341] reads 69.8867%
# % of control remaining, CC(C)CC(NC(=O)Cc1cccc(O)c1)c1nnc2n1CCNCC2 (stereo not drawn) [CBK307183] reads 135.16%
# % of control remaining, O=C1O[C@@H](CCl)CN1c1ccc(N2CCOCC2)c(F)c1 [CBK017613] reads 59.9241%
# % of control remaining, CC1(C)CC(CN)(c2ccccc2)CCO1 (stereo not drawn) [CBK025559C] reads 138.486%

# Going on with the list:

row,Compound,% of control remaining
1,Cc1ccc(CN2CCCN(C(=O)Cn3nc4ccccn4c3=O)CC2)cc1 [CBK297768],164.867%
2,CCn1cc(C(=O)O)c(=O)c2cc(F)c(N3CCN(C(=S)Nc4cc(OC)ccc4OC)CC3)cc21 [CBK265831],124.632%
3,CCCCC(O)(Cc1onc(-c2ccccc2)c1C(=O)N(C)C)c1ccc(CN2CCCC2)cc1 (stereo not drawn) [CBK034415T],72.5135%
4,CN(C)CCNC(=O)c1cccc(-c2cnc3[nH]c(=O)n(C4CCCCC4)c3n2)c1 [CBK064191],173.238%
5,Cc1ccc(OCC(=O)Nc2cccc(C(=O)O)c2)cc1 [CBK287023],111.237%
6,Cc1nc2c(c(=O)[nH]1)CC[C@@H]1CN(C(=O)Cc3cccc(F)c3)C[C@H]21 [CBK284413],110.453%
7,COC(=O)c1ccc(-c2cn3ccnc3c(NCc3ccncc3)n2)cc1 [CBK066734],128.75%
8,COc1cnc(/C=C\c2ccccc2)c(NC(=O)c2ccco2)n1 [CBK145361],171.913%
9,Cc1ccc2c(c1)nc(-c1ccc(O)cc1)n2Cc1ccc(O)cc1 [CBK291226],74.2613%
10,O=C(Cc1nnn[nH]1)Nc1cccc(-c2nn[nH]n2)c1 [CBK160122],113.307%
11,Cc1nnc(SCc2ccc(CSc3nnc(C)c(=O)[nH]3)cc2)[nH]c1=O [CBK268085],127.935%
12,COC(=O)CCC(=O)Nc1cccc([N+](=O)[O-])c1 [CBK261345],111.287%
13,COCCNC(=O)N1CCN(CCc2ccccc2)CC1 [CBK158909],186.598%
14,O=C(Cn1c(=O)cc(O)c2ccccc21)Nc1cccc(F)c1 [CBK291242],128.67%
15,CCc1nc2ccc(C(=O)N3CCN(S(=O)(=O)CC)CC3)cn2c1N(C)CC [CBK145520],113.662%
16,Clc1cc2nc(OC3CCCNC3)c(N3CCCC3)nc2cc1Cl (stereo not drawn) [CBK113454],108.682%
17,N#CCCCN1CCC(Oc2nccnc2OCCN2C(=O)CCC2=O)CC1 [CBK084349],118.981%
18,COc1ccc(Cl)cc1N1CCN(CC(=O)Nc2ccc(F)c(Cl)c2)CC1 [CBK126417],95.1895%
19,CCSc1nc(=O)c2c(n1C)NC(=O)CC2c1ccccc1 (stereo not drawn) [CBK307541],89.5352%
20,O=c1c2c([nH]c3nc(NCc4ccc(OCc5ccccc5)cc4)nn13)CCC2 [CBK268044],124.588%
21,CCNC(=O)N[C@H]1CO[C@H]2[C@@H]1OC[C@@H]2Nc1nccc(-c2ccc(OC)cc2)n1 [CBK289528],116.736%
22,CCCCC(=O)/N=C(\N)Nc1nc2ccccc2o1 [CBK287937],14.9301%
23,Cc1ccc(Oc2ccc([N+](=O)[O-])cc2F)c(Br)c1 [CBK002821],114.798%
24,Cc1cc(C(F)(F)F)n(CC(C)CNC(=O)Cc2csc(C)n2)n1 (stereo not drawn) [CBK306733],113.877%
25,C/C(=N\N=C1\N=C(O)C(CC(=O)O)S1)c1ccco1 (stereo not drawn) [CBK021973],130.358%
26,Cc1cc(F)ccc1OC1(C(=O)O)CCN(Cc2ccoc2)CC1 [CBK307187],101.768%
